The other results are listed elsewhere or left out.
What was measured:
Experiment in all cases: log2 fold change, soluble protein after heating vs DMSO (PISA); higher = thermal stabilisation; K562 cells, 10 uM, 30 min; active = over 0.2 and 3.5 SD of the protein, either way, in both replicates (recomputed)
[1] = compound: CS(=O)(=O)c1ccc(-c2cnc(N)c(C(=O)Nc3ccccc3)n2)cc1
Method in brief: (§1)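 Values are thermal stability changes relative to control samples and are taken from duplicates. They are stated as log2 fold changes. Before quantification by TMTpro 16plex LC-MS/MS with equalised channel sums, K562 cells at 2×10^6 cells/mL were treated with 10 μM compound for 30 min, heated in aliquots for 3 min across 48°C-58°C, pooled, extracted in PBS with 0.5% NP-40 at 4°C, and centrifuged at 21,000xg for 90 min to give the soluble supernatant.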

Sequences of proteins named here, by UniProt entry; tags and fusion partners are left off. A change or cut given only in a name is not applied to a line headed by its entry.
UniProt O95785: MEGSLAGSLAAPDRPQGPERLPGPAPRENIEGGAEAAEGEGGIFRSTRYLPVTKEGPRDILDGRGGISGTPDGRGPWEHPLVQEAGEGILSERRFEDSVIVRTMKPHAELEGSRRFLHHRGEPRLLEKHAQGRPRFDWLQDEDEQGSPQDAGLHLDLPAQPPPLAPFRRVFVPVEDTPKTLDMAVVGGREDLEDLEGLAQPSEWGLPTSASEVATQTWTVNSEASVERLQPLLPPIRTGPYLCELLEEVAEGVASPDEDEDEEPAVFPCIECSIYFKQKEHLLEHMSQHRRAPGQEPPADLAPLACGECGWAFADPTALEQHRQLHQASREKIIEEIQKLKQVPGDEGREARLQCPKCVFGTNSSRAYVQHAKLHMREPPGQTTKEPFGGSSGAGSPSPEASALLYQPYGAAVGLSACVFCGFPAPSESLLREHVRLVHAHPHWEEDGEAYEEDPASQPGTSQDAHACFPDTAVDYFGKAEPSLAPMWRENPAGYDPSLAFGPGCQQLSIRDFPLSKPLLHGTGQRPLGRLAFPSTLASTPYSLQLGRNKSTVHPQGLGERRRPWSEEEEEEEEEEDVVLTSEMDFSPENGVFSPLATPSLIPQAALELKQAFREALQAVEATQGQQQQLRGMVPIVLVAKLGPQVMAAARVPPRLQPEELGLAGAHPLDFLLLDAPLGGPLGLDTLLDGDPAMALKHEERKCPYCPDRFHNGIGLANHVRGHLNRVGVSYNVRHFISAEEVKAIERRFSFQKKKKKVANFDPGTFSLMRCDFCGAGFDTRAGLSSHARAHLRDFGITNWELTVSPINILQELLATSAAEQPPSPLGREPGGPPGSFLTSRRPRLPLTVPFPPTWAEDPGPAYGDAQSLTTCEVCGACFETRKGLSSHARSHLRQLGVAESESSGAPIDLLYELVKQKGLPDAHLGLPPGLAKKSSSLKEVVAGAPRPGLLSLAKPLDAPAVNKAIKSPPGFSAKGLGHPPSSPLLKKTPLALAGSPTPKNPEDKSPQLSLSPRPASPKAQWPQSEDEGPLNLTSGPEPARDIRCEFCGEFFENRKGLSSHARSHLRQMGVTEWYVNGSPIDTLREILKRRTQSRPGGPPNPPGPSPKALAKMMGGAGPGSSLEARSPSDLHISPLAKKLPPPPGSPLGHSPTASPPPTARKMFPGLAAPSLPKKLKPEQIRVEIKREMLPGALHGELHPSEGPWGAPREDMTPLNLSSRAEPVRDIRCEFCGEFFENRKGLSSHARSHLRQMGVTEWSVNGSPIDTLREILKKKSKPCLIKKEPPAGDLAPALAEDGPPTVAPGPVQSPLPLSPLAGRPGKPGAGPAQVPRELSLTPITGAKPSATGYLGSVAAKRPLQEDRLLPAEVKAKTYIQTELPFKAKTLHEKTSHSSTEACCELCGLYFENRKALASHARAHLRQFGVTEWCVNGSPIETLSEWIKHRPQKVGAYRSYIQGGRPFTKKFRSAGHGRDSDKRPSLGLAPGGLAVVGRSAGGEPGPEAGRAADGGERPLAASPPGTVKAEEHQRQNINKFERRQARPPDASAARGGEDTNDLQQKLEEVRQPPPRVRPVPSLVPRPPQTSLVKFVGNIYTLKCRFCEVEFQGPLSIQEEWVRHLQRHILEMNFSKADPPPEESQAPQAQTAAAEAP
UniProt O75717: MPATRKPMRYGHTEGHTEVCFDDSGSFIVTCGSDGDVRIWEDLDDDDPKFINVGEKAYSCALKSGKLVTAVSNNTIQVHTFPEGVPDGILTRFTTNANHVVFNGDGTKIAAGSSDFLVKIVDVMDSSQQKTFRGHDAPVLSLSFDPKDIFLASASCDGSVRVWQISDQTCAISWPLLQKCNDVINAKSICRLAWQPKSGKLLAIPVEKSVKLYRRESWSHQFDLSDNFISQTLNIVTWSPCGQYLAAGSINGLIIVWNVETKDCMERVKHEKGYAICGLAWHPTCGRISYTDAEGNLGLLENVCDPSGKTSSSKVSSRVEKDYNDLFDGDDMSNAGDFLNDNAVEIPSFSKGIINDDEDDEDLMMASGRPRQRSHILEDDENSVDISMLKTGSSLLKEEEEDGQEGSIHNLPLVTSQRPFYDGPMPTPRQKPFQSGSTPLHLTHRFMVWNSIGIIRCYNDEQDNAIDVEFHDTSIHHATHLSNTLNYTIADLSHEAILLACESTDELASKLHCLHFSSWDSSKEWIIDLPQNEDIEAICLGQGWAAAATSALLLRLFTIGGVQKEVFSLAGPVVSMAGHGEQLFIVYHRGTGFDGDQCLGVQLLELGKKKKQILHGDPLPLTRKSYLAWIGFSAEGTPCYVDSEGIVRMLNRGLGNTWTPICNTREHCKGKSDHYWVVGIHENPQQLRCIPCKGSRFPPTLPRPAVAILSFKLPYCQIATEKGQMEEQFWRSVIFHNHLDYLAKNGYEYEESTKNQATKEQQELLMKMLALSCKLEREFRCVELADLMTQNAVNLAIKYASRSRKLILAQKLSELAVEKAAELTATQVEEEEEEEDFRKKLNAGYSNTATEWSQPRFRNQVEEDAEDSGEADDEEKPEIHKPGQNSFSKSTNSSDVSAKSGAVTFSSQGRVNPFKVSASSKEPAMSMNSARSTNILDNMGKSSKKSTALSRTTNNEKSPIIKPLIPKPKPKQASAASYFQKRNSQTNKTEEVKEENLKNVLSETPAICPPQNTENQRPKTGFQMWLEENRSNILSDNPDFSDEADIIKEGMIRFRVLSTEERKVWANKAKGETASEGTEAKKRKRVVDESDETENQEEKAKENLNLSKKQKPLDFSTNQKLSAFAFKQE
UniProt Q15061: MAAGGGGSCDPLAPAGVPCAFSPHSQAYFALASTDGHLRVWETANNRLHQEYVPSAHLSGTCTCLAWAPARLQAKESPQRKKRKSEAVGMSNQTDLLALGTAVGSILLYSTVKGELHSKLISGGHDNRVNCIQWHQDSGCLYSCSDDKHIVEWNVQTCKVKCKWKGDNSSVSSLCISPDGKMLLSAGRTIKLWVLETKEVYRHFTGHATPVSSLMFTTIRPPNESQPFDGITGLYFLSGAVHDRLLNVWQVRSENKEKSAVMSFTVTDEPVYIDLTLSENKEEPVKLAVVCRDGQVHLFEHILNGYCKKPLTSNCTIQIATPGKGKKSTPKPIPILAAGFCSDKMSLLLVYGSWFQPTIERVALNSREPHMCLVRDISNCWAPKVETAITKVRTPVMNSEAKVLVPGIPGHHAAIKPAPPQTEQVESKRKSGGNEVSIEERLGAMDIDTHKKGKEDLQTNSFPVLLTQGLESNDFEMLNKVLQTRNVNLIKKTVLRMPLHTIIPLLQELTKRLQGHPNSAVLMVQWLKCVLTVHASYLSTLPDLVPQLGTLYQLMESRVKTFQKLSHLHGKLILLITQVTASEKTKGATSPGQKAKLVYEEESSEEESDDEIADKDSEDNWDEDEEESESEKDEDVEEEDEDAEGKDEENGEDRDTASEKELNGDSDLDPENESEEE
UniProt Q8N1B4: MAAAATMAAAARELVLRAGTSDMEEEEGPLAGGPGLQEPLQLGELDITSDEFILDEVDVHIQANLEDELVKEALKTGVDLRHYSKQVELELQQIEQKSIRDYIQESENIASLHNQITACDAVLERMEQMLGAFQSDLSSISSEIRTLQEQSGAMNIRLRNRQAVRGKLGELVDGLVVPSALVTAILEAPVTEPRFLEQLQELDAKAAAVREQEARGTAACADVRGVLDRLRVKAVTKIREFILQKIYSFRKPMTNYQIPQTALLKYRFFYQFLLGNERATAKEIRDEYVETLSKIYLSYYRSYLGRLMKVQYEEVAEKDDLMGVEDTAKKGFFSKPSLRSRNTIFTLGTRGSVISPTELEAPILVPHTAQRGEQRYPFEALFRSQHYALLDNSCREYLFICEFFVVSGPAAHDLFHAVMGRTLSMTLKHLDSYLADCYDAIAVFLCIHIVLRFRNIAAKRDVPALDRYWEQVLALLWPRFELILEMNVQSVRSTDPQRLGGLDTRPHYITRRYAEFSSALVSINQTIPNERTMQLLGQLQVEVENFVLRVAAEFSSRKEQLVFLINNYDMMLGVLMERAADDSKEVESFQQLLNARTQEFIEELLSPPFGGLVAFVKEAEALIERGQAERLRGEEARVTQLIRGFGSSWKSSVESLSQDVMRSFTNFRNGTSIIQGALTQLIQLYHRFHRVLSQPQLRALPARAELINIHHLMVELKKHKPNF
UniProt Q9P253: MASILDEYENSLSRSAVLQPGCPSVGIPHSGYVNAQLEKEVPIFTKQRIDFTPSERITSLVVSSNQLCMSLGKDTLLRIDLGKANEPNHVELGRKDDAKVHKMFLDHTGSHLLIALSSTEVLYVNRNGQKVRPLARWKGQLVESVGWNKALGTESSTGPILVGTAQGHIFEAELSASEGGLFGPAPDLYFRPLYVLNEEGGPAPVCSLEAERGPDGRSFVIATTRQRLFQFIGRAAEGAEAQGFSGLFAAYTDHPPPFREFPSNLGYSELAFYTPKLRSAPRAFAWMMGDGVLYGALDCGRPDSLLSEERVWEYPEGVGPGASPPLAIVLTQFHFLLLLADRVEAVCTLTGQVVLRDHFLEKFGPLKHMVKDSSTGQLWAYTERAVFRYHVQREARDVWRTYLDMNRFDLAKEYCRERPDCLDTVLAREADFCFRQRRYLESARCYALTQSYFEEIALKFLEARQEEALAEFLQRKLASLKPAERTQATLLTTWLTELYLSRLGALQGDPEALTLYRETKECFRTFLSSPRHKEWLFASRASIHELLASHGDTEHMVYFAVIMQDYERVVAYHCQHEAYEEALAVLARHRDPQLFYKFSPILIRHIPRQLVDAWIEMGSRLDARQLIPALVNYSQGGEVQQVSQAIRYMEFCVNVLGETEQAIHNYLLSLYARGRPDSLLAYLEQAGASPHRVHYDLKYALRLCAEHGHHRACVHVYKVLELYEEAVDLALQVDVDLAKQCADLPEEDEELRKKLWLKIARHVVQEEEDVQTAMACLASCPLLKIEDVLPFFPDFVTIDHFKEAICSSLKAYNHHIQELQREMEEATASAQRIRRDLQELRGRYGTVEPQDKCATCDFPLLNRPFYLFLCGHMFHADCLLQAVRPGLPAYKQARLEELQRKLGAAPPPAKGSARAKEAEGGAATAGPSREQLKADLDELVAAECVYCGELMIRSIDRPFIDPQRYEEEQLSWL
UniProt Q8NEZ2: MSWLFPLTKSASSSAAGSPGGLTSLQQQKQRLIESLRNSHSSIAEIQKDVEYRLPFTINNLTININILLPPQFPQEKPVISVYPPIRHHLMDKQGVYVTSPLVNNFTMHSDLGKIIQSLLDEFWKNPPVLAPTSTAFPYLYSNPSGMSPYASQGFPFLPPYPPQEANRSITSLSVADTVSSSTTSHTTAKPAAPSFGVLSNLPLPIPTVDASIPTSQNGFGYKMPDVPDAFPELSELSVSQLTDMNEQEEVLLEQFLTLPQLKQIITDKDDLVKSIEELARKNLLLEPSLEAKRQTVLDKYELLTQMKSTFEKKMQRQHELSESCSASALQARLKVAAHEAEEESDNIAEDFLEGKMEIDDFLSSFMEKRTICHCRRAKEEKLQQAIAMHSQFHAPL

[2] = compound: C[C@@H](Oc1cc(-c2cnn(C3CCNCC3)c2)cnc1N)c1c(Cl)ccc(F)c1Cl [crizotinib]
Method in brief: as §1

[3] = compound: C[C@@H]1COCCN1C2=NC(=NC(=C2)C3(CC3)S(=O)(=O)C)C4=C5C=CNC5=CC=C4
Method in brief: as §1

[4] = compound: C[C@H](C1=CC=C(C=C1)C(=O)NC2=C3C=CNC3=NC=C2)N
Method in brief: as §1

[5] = compound: C[C@H](Nc1ncnc2nc[nH]c12)c1cc2cccc(Cl)c2c(=O)n1-c1ccccc1 [duvelisib]
Method in brief: as §1

[6] = compound: Cc1cc(Nc2cc(CN3CCOCC3)c3nc(C)c(Cc4ccc(Cl)cc4F)n3n2)n[nH]1 [gandotinib]
Method in brief: as §1

[7] = compound: Cc1cc(Nc2cc(N3CCN(C)CC3)nc(Sc3ccc(NC(=O)C4CC4)cc3)n2)n[nH]1 [tozasertib]
Method in brief: as §1

[8] = compound: Cc1cc(SCc2sc(-c3ccc(C(F)(F)F)cc3)nc2C)ccc1OCC(=O)O
Method in brief: as §1

[9] = compound: Cc1ccc(-n2nc(C(C)(C)C)cc2NC(=O)Nc2ccc(OCCN3CCOCC3)c3ccccc23)cc1 [doramapimod]
Method in brief: as §1

[10] = compound: Cc1ccc(C(=O)N(CCCN)[C@@H](c2nc3cc(Cl)ccc3c(=O)n2Cc2ccccc2)C(C)C)cc1 [ispinesib]
Method in brief: as §1

[11] = compound: Cc1ccc(NC(=O)c2ccc(CN3CC[C@H](N(C)C)C3)c(C(F)(F)F)c2)cc1Nc1nccc(-c2cncnc2)n1 [bafetinib]
Method in brief: as §1

[12] = compound: Cc1cccc(CC(=O)N2CCc3c2ccc(-c2cn(C)c4ncnc(N)c24)c3F)n1
Method in brief: as §1

[13] = compound: Cc1cn(-c2cc(NC(=O)c3ccc(C)c(Nc4nccc(-c5cccnc5)n4)c3)cc(C(F)(F)F)c2)cn1 [nilotinib]
Method in brief: as §1

[14] = compound: Cc1nc(Nc2n[nH]c3c2CN(C(=O)N[C@H](CN(C)C)c2ccccc2)C3(C)C)c2sccc2n1
Method in brief: as §1

[15] = compound: Cc1nc(Nc2ncc(C(=O)Nc3c(C)cccc3Cl)s2)cc(N2CCN(CCO)CC2)n1 [dasatinib]
Method in brief: as §1

[16] = compound: Cc1ncc(-c2ccnc(Nc3ccc(S(C)(=O)=O)cc3)n2)n1C(C)C
Method in brief: as §1

[17] = compound: Cn1cc(-c2ccc3c(c2)CCN3C(=O)Cc2cccc(C(F)(F)F)c2)c2c(N)ncnc21
Method in brief: as §1

[18] = compound: Cn1cc(-c2ccc3nnc(C(F)(F)c4ccc5ncccc5c4)n3n2)cn1
Method in brief: as §1

[19] = compound: Cn1cncc1[C@@](N)(c1ccc(Cl)cc1)c1ccc2c(c1)c(-c1cccc(Cl)c1)cc(=O)n2C [tipifarnib]
Method in brief: as §1

[20] = compound: FC(F)(F)c1ccc(/C=C/c2nc(COc3ccc(CCCCn4ccnn4)cc3)co2)cc1 [mubritinib]
Method in brief: as §1

Measured: log2 fold change

WIZ isoform 3 (UniProt O95785)
inactive: [1] 0.043 | [2] -0.103 | [3] 0.043 | [4] 0.087 | [5] -0.025 | [6] -0.191 | [7] -0.041 | [8] -0.011 | [9] 0.051 | [10] -0.054 | [11] 0.15 | [12] 0.02 | [13] -0.171 | [14] 0.1 | [15] -0.02 | [16] 0 | [17] 0 | [18] -0.052 | [19] -0.127 | [20] 0.035

WDHD1 (UniProt O75717)
inactive: [1] 0.038 | [2] 0.021 | [3] 0.098 | [4] -0.025 | [6] -0.029 | [8] 0.109 | [9] -0.093 | [10] 0.042 | [11] -0.009 | [12] 0.008 | [13] -0.005 | [14] -0.12 | [15] -0.076 | [16] -0.021 | [17] 0.03 | [18] 0.022 | [19] -0.041 | [20] 0.067

VPS33B (UniProt Q9H267)
inactive: [1] 0.05 | [2] -0.182 | [3] -0.022 | [4] 0.063 | [6] -0.114 | [8] 0.085 | [9] -0.01 | [10] -0.149 | [11] 0.01 | [12] 0.04 | [13] -0.056 | [14] -0.158 | [15] -0.209 | [16] 0.099 | [17] 0.017 | [18] -0.069 | [19] -0.107 | [20] 0.054

WBP4 (UniProt O75554)
inactive: [1] -0.032 | [2] 0.059 | [3] 0.004 | [4] -0.015 | [6] -0.022 | [8] 0.01 | [9] 0.018 | [10] -0.044 | [11] -0.043 | [12] 0.14 | [13] 0.001 | [14] -0.006 | [15] 0.014 | [16] -0.023 | [17] 0.037 | [18] 0.047 | [19] 0.023 | [20] 0.06

WDR43 (UniProt Q15061)
inactive: [1] 0.008 | [2] 0.08 | [3] 0.016 | [4] -0.051 | [6] 0.009 | [8] -0.053 | [9] -0.035 | [10] 0.081 | [11] -0.041 | [12] -0.052 | [13] -0.013 | [14] 0.033 | [15] 0.015 | [16] 0.102 | [17] -0.022 | [18] 0.013 | [19] 0.005 | [20] -0.024

VTI1B (UniProt Q9UEU0)
inactive: [1] 0.022 | [2] -0.089 | [3] 0.025 | [4] 0.032 | [6] 0.039 | [8] -0.077 | [9] 0.084 | [11] -0.064 | [12] -0.177 | [13] 0.013 | [14] 0.015 | [15] -0.011 | [16] 0.027 | [17] 0 | [18] 0.037 | [19] 0.085 | [20] -0.055
active: [10] -0.41

VPS52 (UniProt Q8N1B4)
inactive: [1] -0.001 | [2] -0.102 | [3] -0.031 | [4] 0.058 | [6] -0.122 | [8] -0.013 | [9] 0.008 | [10] -0.068 | [11] -0.005 | [12] -0.031 | [13] -0.085 | [14] -0.086 | [15] -0.071 | [16] 0.091 | [17] 0.001 | [18] -0.016 | [19] -0.089 | [20] 0

VPS18 (UniProt Q9P253)
inactive: [1] -0.008 | [2] -0.21 | [3] -0.013 | [4] 0.05 | [6] -0.041 | [8] 0.063 | [9] -0.014 | [10] -0.203 | [11] -0.097 | [12] 0.059 | [13] -0.052 | [14] -0.069 | [15] -0.194 | [16] -0.022 | [17] 0.086 | [18] 0.089 | [19] -0.047 | [20] 0.088

VPS50 (UniProt Q96JG6)
active: [15] -0.257
inactive: [1] 0.012 | [2] -0.118 | [3] 0.044 | [4] 0.049 | [6] -0.066 | [8] 0.086 | [9] -0.032 | [10] -0.023 | [11] 0.017 | [12] 0.088 | [13] -0.074 | [14] -0.077 | [16] 0.038 | [17] -0.019 | [18] -0.035 | [19] -0.066 | [20] 0.045

VPS37A (UniProt Q8NEZ2)
inactive: [1] 0.035 | [2] -0.146 | [3] 0.092 | [4] -0.084 | [6] -0.292 | [8] 0.206 | [9] -0.017 | [10] 0 | [11] -0.065 | [12] -0.06 | [13] -0.134 | [14] -0.27 | [15] -0.168 | [16] -0.039 | [17] 0.048 | [18] 0.014 | [19] -0.112 | [20] -0.038

WDCP (UniProt Q9H6R7)
inactive: [1] -0.018 | [2] 0.079 | [3] -0.046 | [4] -0.024 | [6] 0.047 | [8] 0.084 | [9] 0.005 | [10] 0.032 | [11] -0.052 | [12] -0.05 | [13] -0.149 | [14] -0.12 | [15] -0.074 | [16] -0.035 | [17] -0.099 | [18] -0.001 | [19] -0.029 | [20] 0

VTA1 (UniProt Q9NP79)
inactive: [1] 0.032 | [2] -0.049 | [3] 0.056 | [4] -0.019 | [6] -0.127 | [8] 0.057 | [9] -0.021 | [10] -0.014 | [11] -0.035 | [12] 0.081 | [13] -0.07 | [14] -0.011 | [15] -0.109 | [16] -0.005 | [17] 0.035 | [18] 0 | [19] -0.109 | [20] 0.033

WDR4 (UniProt P57081)
inactive: [1] 0.085 | [2] -0.038 | [3] -0.024 | [4] -0.121 | [6] 0.049 | [8] 0.017 | [9] 0.023 | [10] 0.075 | [12] -0.06 | [13] 0.009 | [14] 0.005 | [15] -0.013 | [16] -0.003 | [17] 0.068 | [18] -0.061 | [19] -0.132 | [20] 0.031
active: [11] 0.455

VPS35L (UniProt Q7Z3J2)
inactive: [1] 0.054 | [2] -0.128 | [3] -0.043 | [4] 0.186 | [6] 0 | [8] 0.023 | [9] 0.02 | [10] -0.11 | [11] 0.006 | [12] -0.008 | [13] -0.201 | [14] 0.101 | [15] -0.056 | [16] -0.123 | [17] -0.152 | [18] 0.009 | [19] -0.002 | [20] 0.02

VRK1 (UniProt Q99986)
inactive: [1] 0.055 | [2] -0.11 | [3] 0.126 | [6] -0.067 | [8] 0.161 | [9] -0.075 | [10] -0.077 | [11] 0.035 | [12] 0.078 | [13] -0.074 | [15] -0.224 | [16] 0.164 | [17] 0.057 | [18] 0.028 | [19] -0.041 | [20] 0.008
active: [4] 0.444 | [14] 0.542

WNK1 isoform 7 (UniProt Q9H4A3)
inactive: [1] 0.022 | [2] -0.061 | [3] -0.027 | [4] 0.03 | [6] -0.032 | [8] -0.018 | [9] 0.001 | [10] -0.044 | [11] -0.038 | [12] 0.046 | [13] -0.029 | [14] -0.071 | [15] 0.102 | [16] 0.022 | [17] 0.178 | [18] -0.022 | [19] -0.022 | [20] 0.036

Three consecutive entries already listed, quoted:
VPS37A (UniProt Q8NEZ2)
inactive: [1] 0.035 | [2] -0.146 | [3] 0.092 | [4] -0.084 | [6] -0.292 | [8] 0.206 | [9] -0.017 | [10] 0 | [11] -0.065 | [12] -0.06 | [13] -0.134 | [14] -0.27 | [15] -0.168 | [16] -0.039 | [17] 0.048 | [18] 0.014 | [19] -0.112 | [20] -0.038

WDCP (UniProt Q9H6R7)
inactive: [1] -0.018 | [2] 0.079 | [3] -0.046 | [4] -0.024 | [6] 0.047 | [8] 0.084 | [9] 0.005 | [10] 0.032 | [11] -0.052 | [12] -0.05 | [13] -0.149 | [14] -0.12 | [15] -0.074 | [16] -0.035 | [17] -0.099 | [18] -0.001 | [19] -0.029 | [20] 0

VTA1 (UniProt Q9NP79)
inactive: [1] 0.032 | [2] -0.049 | [3] 0.056 | [4] -0.019 | [6] -0.127 | [8] 0.057 | [9] -0.021 | [10] -0.014 | [11] -0.035 | [12] 0.081 | [13] -0.07 | [14] -0.011 | [15] -0.109 | [16] -0.005 | [17] 0.035 | [18] 0 | [19] -0.109 | [20] 0.033

Carrying on:

WEE1 (UniProt P30291)
active: [3] -1.07 | [14] -0.905 | [15] 0.805
inactive: [1] -0.3 | [2] -0.025 | [4] 0.094 | [6] 0.247 | [8] -0.049 | [9] 0.026 | [10] 0.046 | [11] -0.152 | [12] -0.062 | [13] 0.182 | [16] 0.311 | [17] -0.043 | [18] -0.037 | [19] -0.037 | [20] 0.394
